Measured values from patent US20240050582A1, “CONJUGATES INCLUDING MULTIPLE SACCHARIDIC CHAINS ON A LINEAR PROTEIN AND USES IN MAMMALS FEED” (UNIVERSITEIT GENT, priority 2021, published 2024).
At least one compound was matched to its structure with a doubt left.

Assays:
F18 E. coli [1] = format: in vivo, pig; conditions: P<0.05
F18 E. coli [2] = assay: Part E: intestinal morphology; conditions: vs control group, P<0.05

COC(=O)N/N=C/c1c[n+]([O-])c2ccccc2[n+]1[O-] [AGP, carbadox]
frequency of diarrhea from d 0 to 11 PI (F18 E. coli [1]): reduced
BW on d 5 PI (F18 E. coli [1]; vs positive control and Coligo A6PL treatments): greater
villi height in duodenum and ileum, ratio of villi height to crypt depth in all three intestinal segments, villi area in duodenum (F18 E. coli [2]; d 5 PI): greater
villi height in all three intestinal segments (F18 E. coli [2]; d 11 PI): higher
